Results on 19 molecules are retold here after PubChem BioAssay AID330 (DTP/NCI, 2004).

For the assay, the system named is P388 leukemia ip, CD2F1 mice, survival T/C. Description: NCI In Vivo Anticancer Drug Screen. Data for tumor model P388 Leukemia (intraperitoneal) in CD2F1 (CDF1) mice. As to conditions: T/C endpoint: median survival time, higher T/C = longer survival.
Where [1] appears, read: dose: 200.0 mg/kg/injection, schedule: Q01DX009 (ip), vehicle: saline with Tween-80.
The mark [2] stands for this setting: dose: 400.0 mg/kg/injection, schedule: Q01DX009 (ip), vehicle: saline with Tween-80.
Setting [3] is: dose: 200.0 mg/kg/injection, schedule: Q01DX009 (ip), vehicle: saline.
Where [4] appears, read: dose: 50.0 mg/kg/injection, schedule: Q01DX009 (ip), vehicle: saline with Tween-80.
Setting [5] is: dose: 100.0 mg/kg/injection, schedule: Q01DX009 (ip), vehicle: saline with Tween-80.
The mark [6] stands for this setting: dose: 50.0 mg/kg/injection, schedule: Q01DX009 (ip), vehicle: water.
The mark [7] stands for this setting: dose: 100.0 mg/kg/injection, schedule: Q04DX003 (ip), vehicle: water.
Where [8] appears, read: dose: 160.0 mg/kg/injection, schedule: Q01DX009 (ip), vehicle: saline with Tween-80.

The list does not hold the whole screen: it is rich in T/C values a quarter to a half above the control, in often repeated tests (any T/C) and in doses without a T/C. Further doses and runs are listed elsewhere. T/C gives the treated animals as a percentage of the vehicle group. Some entries give survivors of the animals treated and no T/C: the source holds a T/C of zero for them, seemingly a mark for toxic or unscored doses. Some survivor counts are full or nearly so, which does not show that the dose was tolerated: survival well below the control is almost never listed, so the zero probably covers shortened survival too. Survivors were counted at the toxicity check, usually on the fifth day, unless a day is given; later deaths do not show. Schedule codes are those of the source, read here as Q, the interval in days (D) or hours (H), X, the number of doses. Some doses were run more than once; their values stand side by side, smallest first. Where survival is the endpoint, the PubChem record calls one and a half times the control and up active, and a quarter to a half above the control has no call in these data; cut-offs in other NCI protocols can differ. Some T/C values carry the count of animals alive at the toxicity check (mostly the fifth day); without a count, all were alive then.

For `c1ccc2c(c1)ccc1c[n+]3ccccc3cc12`, the survivor count by setting is: (dose: 5.0 mg/kg/injection, schedule: Q04DX003 (ip), vehicle: other) 3 of 6; (dose: 10.0 mg/kg/injection, schedule: Q04DX003 (ip), vehicle: other) 0 of 6; (dose: 20.0 mg/kg/injection, schedule: Q04DX003 (ip), vehicle: other) 0 of 6.
With `COc1cc2c[n+](C)c3c(c2cc1OC)Cc1c-3ccc(O)c1OC`, the T/C is, setting by setting: (dose: 200.0 mg/kg/injection, schedule: Q01DX001 (ip), vehicle: Klucel (hydroxypropylcellulose) (HPC)) 134 % of control; (dose: 400.0 mg/kg/injection, schedule: Q01DX001 (ip), vehicle: Klucel (hydroxypropylcellulose) (HPC)) 137 % of control.
With `CC(=O)OC1CCC2(C)CCC3C(OC(=O)C3(C)[Se]c3ccccc3)C2C1C` (configuration not stated), the survivor count is, setting by setting: (dose: 200.0 mg/kg/injection, schedule: Q04DX002 (ip), vehicle: saline with Tween-80) 6 of 6; (dose: 400.0 mg/kg/injection, schedule: Q04DX002 (ip), vehicle: saline with Tween-80) 6 of 6.
As to `CC(C)(C(=O)O)C(Nc1ncnc2c1ncn2C1OC(CO)C(O)C1O)C(=O)O` (configuration not stated), for the setting “dose: 400.0 mg/kg/injection, schedule: Q04DX003 (ip), vehicle: saline”, the survivor count was 6 of 6.
In the case of `Cc1cc2c(=O)cc(-c3ccccc3)oc2c(C(=O)O)c1C`, the T/C (dose: 120.0 mg/kg/injection, schedule: Q01DX005 (ip), vehicle: saline with Tween-80) was 128 and 148 % of control; the T/C (dose: 240.0 mg/kg/injection, schedule: Q01DX005 (ip), vehicle: saline with Tween-80) was 138 % of control [5 of 6 alive].
With `CC1(C)CC2(C)OC2C2(C1)N=NC(=Nc1ccccc1)O2` (configuration not stated), the survivor count was 5 of 6 under setting [1]; 4 of 6 and 5 of 6 under setting [2].
Consider `CCN(CC)Cc1cc(Nc2cc(Cl)c3ccc(N(C)C)cc3n2)ccc1O`, for which the survivor count is, setting by setting: (dose: 100.0 mg/kg/injection, schedule: Q01DX009 (ip), vehicle: saline) 5 of 6; under setting [3], 1 of 6.
Regarding `O=C(CNC(=O)c1ccccc1)N/N=C/c1ccc2c(c1)OCO2`, the T/C is, setting by setting: under setting [4], 96, 100, 111 % of control; under setting [5], 89, 90, 92, 107 % of control; under setting [1], 91, 104, 127 % of control. Besides, the survivor count runs as follows: under setting [4], 6 of 6; under setting [1], 6 of 6; under setting [2], 6 of 6.
For the molecule `COc1cccc2c1C(=O)c1c(O)c3c(c(O)c1C2=O)C[C@@](O)(/C(C)=N\O)C[C@@H]3OC1CC(N)C(O)C(C)O1` (some centres not stated), the T/C was 127 % of control (dose: 25.0 mg/kg/injection, schedule: Q04DX003 (ip), vehicle: water); 127 % of control (dose: 50.0 mg/kg/injection, schedule: Q04DX003 (ip), vehicle: water, evaluated on day 30); 126 % of control (dose: 50.0 mg/kg/injection, schedule: Q04DX003 (ip), vehicle: water, evaluated on day 45); 126 % of control [5 of 6 alive] under setting [7]. Moreover, the survivor count is 6 of 6 under setting [6] and 1 of 6 (dose: 200.0 mg/kg/injection, schedule: Q04DX003 (ip), vehicle: water).
On to `O=C(NC(C(=O)O)C1CC(Cl)=NO1)OCc1ccc([N+](=O)[O-])cc1` (configuration not stated), for which the T/C reads like this: (dose: 25.0 mg/kg/injection, schedule: Q04DX003 (ip), vehicle: other) 125 % of control; (dose: 50.0 mg/kg/injection, schedule: Q04DX003 (ip), vehicle: other) 125 % of control; (dose: 100.0 mg/kg/injection, schedule: Q04DX003 (ip), vehicle: other) 140 % of control; (dose: 200.0 mg/kg/injection, schedule: Q04DX003 (ip), vehicle: other) 140 % of control.
Regarding `Nc1nc2ncc(CNc3ccc(C(=O)NC(CCC(=O)O)C(=O)O)cc3)nc2c(=O)[nH]1` (configuration not stated), the survivor count is, setting by setting: under setting [5], 0 of 6; under setting [1], 0 of 6; under setting [3], 1 of 5; (dose: 400.0 mg/kg/injection, schedule: Q01DX009 (ip), vehicle: saline) 0 of 5.
Regarding `COc1cccc2c1C(=O)c1c(O)c3c(c(O)c1C2=O)C[C@@](O)(C(C)O)C[C@@H]3OC1CC(N(Cc2ccccc2)Cc2ccccc2)C(O)C(C)O1` (some centres not stated), the T/C runs as follows: (dose: 3.13 mg/kg/injection, schedule: Q01DX009 (ip), vehicle: water) 146 % of control; (dose: 6.25 mg/kg/injection, schedule: Q04DX003 (ip), vehicle: water) 126 % of control; (dose: 9.4 mg/kg/injection, schedule: Q04DX003 (ip), vehicle: water) 126 % of control; (dose: 12.5 mg/kg/injection, schedule: Q04DX003 (ip), vehicle: water) 138 % of control; (dose: 18.8 mg/kg/injection, schedule: Q04DX003 (ip), vehicle: water) 141 % of control; under setting [7], 129 % of control. The survivor count was 6 of 6 (dose: 25.0 mg/kg/injection, schedule: Q01DX009 (ip), vehicle: water); 6 of 6 under setting [6]; 6 of 6 (dose: 100.0 mg/kg/injection, schedule: Q01DX009 (ip), vehicle: water).
Regarding `N=c1ccn2c(n1)OC1C(O)C(CO)OC12` (configuration not stated), the T/C by setting is: (dose: 37.5 mg/kg/injection, schedule: Q01DX009 (ip), vehicle: saline) 145 % of control; (dose: 80.0 mg/kg/injection, schedule: Q01DX005 (ip), vehicle: saline) 141 % of control; (dose: 80.0 mg/kg/injection, schedule: Q01DX005 (iv), vehicle: saline) 141 % of control.
With `O=[N+]([O-])c1cccc2nc(Cl)ccc12`, the survivor count is 3 of 6 (dose: 200.0 mg/kg/injection, schedule: Q01DX009 (ip), vehicle: other) and 0 of 6 (dose: 400.0 mg/kg/injection, schedule: Q01DX009 (ip), vehicle: other).
As to `O=C1Nc2ccc(Br)cc2/C1=c1/sc2nc3ccccc3n2c1=O`, the survivor count (dose: 12.5 mg/kg/injection, schedule: Q01DX005 (ip), vehicle: Klucel (hydroxypropylcellulose) (HPC)) is given as 6 of 6; the survivor count (dose: 25.0 mg/kg/injection, schedule: Q01DX005 (ip), vehicle: Klucel (hydroxypropylcellulose) (HPC)) is reported as 6 of 6; the survivor count (dose: 50.0 mg/kg/injection, schedule: Q01DX005 (ip), vehicle: Klucel (hydroxypropylcellulose) (HPC)) is given as 6 of 6; the survivor count (dose: 200.0 mg/kg/injection, schedule: Q01DX005 (ip), vehicle: Klucel (hydroxypropylcellulose) (HPC)) is 0 of 6.
`C/C=C/C=C\C(=O)O`: the survivor count by setting is: under setting [4], 4 of 6; under setting [5], 6 of 6.
On to `Cc1ccc2c(NCCCCCCCCNc3c4ccccc4nc4cc(C)ccc34)c3ccccc3nc2c1`, for which the T/C (dose: 5.0 mg/kg/injection, schedule: Q01DX009 (ip), vehicle: water) is 148 % of control. For the same molecule, the survivor count is, setting by setting: (dose: 10.0 mg/kg/injection, schedule: Q01DX009 (ip), vehicle: water) 3 of 6; (dose: 20.0 mg/kg/injection, schedule: Q01DX009 (ip), vehicle: water) 0 of 6; (dose: 40.0 mg/kg/injection, schedule: Q01DX009 (ip), vehicle: water) 0 of 6.
Consider `CN(C)Sc1ccc(Cl)cc1[N+](=O)[O-]`, for which the survivor count (dose: 50.0 mg/kg/injection, schedule: Q01DX009 (ip), vehicle: saline) is 5 of 6.
On to `C=C1C(=O)OC2/C=C(\C)C(O)CC(O)C(C)(O)CC(OC(=O)/C(C)=C/C)C12` (configuration not stated), for which the T/C (dose: 80.0 mg/kg/injection, schedule: Q01DX009 (ip), vehicle: saline with Tween-80) was 125 % of control [5 of 6 alive]. In addition, under setting [8], the T/C was 137 % of control and the survivor count is on record as 6 of 6.
